Results published in paper PMC7714401.
Results are given in words; binding and its absence hold for the method and conditions named. Tags and fused reporters may be left off the sequences shown.

Amino acid sequences for entries named in this document (tags omitted). Residues count along the entry.
UniProt Q02413, residues 50-548: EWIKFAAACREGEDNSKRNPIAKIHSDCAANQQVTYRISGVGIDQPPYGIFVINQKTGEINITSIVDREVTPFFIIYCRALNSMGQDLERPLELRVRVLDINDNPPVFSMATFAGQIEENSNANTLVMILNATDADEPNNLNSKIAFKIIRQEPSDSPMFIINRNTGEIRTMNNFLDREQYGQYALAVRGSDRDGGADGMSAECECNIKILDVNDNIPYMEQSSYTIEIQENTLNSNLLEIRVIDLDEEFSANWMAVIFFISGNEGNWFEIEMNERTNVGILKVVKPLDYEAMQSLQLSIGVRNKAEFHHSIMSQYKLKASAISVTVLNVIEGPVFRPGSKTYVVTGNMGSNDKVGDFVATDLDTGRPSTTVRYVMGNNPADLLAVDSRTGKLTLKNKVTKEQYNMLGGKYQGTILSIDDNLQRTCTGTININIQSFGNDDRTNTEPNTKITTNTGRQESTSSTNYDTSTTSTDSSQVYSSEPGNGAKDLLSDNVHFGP

Legend:
[1] = target: T1, recombinant human Dsg3 (human) (UniProt P32926); test: ELISA; plates coated with 0.1 μg recombinant protein in carbonate-bicarbonate buffer (0.1 M, pH 9.6) at 4°C overnight; incubated with decreasing concentrations of rPpSP32 (or CFP32) for 1 hour at 37°C; detected with human sera containing anti-PpSP32 or anti-CFP32 antibodies; both purified
T1 sequence: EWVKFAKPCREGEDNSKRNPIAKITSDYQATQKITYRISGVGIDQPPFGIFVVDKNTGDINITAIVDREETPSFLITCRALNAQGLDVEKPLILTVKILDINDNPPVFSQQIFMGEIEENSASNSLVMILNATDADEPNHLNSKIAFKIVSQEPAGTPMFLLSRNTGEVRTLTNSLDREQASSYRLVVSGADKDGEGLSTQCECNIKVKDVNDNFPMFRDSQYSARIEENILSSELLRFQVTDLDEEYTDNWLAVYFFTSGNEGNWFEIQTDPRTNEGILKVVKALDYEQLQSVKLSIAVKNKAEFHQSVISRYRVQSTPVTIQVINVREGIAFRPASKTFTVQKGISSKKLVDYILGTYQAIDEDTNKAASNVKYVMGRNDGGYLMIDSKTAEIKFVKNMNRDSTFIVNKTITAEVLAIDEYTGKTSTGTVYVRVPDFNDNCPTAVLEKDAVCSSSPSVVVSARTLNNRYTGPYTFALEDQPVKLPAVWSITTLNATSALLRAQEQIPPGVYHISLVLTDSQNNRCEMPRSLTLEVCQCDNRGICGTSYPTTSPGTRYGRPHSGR

[2] = target: recombinant human Dsg1 (human) (UniProt Q02413); test: as above

B1: recombinant form of the CFP32 protein of Mycobacterium tuberculosis (protein, UniProt P9WIR3 1-261)
chain: MPKRSEYRQGTPNWVDLQTTDQSAAKKFYTSLFGWGYDDNPVPGGGGVYSMATLNGEAVAAIAPMPPGAPEGMPPIWNTYIAVDDVDAVVDKVVPGGGQVMMPAFDIGDAGRMSFITDPTGAAVGLWQANRHIGATLVNETGTLIWNELLTDKPDLALAFYEAVVGLTHSSMEIAAGQNYRVLKAGDAEVGGCMEPPMPGVPNHWHVYFAVDDADATAAKAAAAGGQVIAEPADIPSVGRFAVLSDPQGAIFSVLKPAPQQ
B1 was tested, and the binding [1] was “no binding” and the binding [2] was “no binding”.
